The assay deals with N-cadherin on the HuProt human proteome array (human) (UniProt P19022). Nature of the assay: peptide or protein array; EV-Cy3 and NT-Cy3 profiled on HuProt human proteome arrays (CDI Laboratories); both purified.

Sequences of proteins named here, by UniProt entry; tags and fusion partners are left off. A change or cut given only in a name is not applied to a line headed by its entry.
UniProt P19022: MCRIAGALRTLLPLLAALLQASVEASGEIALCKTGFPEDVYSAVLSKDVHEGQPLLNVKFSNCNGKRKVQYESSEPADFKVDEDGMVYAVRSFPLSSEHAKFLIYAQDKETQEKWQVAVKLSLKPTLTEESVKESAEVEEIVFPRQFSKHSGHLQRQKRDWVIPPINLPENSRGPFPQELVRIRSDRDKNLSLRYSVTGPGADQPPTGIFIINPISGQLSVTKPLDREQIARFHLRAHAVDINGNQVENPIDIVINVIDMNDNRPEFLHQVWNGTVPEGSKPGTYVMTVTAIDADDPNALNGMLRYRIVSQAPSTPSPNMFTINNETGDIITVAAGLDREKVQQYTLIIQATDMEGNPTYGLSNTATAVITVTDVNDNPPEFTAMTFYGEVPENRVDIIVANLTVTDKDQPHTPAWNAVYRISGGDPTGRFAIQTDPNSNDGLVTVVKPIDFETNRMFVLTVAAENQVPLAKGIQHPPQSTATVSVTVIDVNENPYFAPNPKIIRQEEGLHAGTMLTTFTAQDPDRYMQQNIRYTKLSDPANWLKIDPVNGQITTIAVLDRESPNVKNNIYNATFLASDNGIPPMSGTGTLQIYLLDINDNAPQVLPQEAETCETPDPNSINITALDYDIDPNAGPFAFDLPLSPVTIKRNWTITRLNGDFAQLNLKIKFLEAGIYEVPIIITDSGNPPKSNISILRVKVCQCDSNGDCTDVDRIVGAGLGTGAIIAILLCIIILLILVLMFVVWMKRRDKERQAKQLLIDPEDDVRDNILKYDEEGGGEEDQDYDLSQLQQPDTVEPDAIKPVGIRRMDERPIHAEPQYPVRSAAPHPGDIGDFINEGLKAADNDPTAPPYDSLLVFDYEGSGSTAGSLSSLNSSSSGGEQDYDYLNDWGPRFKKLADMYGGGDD

No constants are given. Whether binding was seen depends on the method and setting. Binding calls can cover weak binding; strength is not graded here.

On to AWEFYFPGGGGSGGGGSGGGGSSSQPFWS (conjugated with cyanine 3 (position not given)) [cyanine 3-conjugated dual peptide EV (EV-Cy3)], for which the binding result is “binds”.

The record behind these values is publication PMC10080078, “Use of phage display biopanning as a tool to design CAR-T cells against glioma stem cells” (Frontiers in Oncology, 2023).
